# Results published in article PMC7862700.
# The list shows a part of the results, in another mix than the full data. At the low end of the ranking, values are background and their order means little.
# Experiments:
# Assay in all cases: DAPPL (digital affinity profiling via proximity ligation, sequencing)
# Conditions in all cases: 10 mM Tris-HCl pH 7.5, 50 mM NaCl, 1 mM DTT, 4% glycerol, room temperature, 30 min; GST-TFs on glutathione beads, 16-mer random dsDNA library, 0.1% …; high values mean tight binding; double strand, one strand shown; scale: fold enrichment (6-mer frequency, TF over GST control)
# [1] = molecular target: T1, ELK1 (UniProt P19419)
# T1 sequence: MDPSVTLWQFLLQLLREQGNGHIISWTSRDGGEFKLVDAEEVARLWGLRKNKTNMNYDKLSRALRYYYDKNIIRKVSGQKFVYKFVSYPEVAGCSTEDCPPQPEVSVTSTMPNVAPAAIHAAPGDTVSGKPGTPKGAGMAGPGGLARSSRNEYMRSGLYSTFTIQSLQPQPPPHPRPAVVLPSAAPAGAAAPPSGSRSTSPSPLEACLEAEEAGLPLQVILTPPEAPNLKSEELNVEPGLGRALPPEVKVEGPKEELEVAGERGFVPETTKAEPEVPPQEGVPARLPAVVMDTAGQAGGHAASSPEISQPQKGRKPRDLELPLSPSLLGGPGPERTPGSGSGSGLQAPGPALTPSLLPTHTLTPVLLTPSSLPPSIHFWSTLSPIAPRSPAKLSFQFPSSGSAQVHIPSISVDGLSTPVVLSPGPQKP
# [2] = molecular target: T2, ELK3 (UniProt P41970)
# T2 sequence: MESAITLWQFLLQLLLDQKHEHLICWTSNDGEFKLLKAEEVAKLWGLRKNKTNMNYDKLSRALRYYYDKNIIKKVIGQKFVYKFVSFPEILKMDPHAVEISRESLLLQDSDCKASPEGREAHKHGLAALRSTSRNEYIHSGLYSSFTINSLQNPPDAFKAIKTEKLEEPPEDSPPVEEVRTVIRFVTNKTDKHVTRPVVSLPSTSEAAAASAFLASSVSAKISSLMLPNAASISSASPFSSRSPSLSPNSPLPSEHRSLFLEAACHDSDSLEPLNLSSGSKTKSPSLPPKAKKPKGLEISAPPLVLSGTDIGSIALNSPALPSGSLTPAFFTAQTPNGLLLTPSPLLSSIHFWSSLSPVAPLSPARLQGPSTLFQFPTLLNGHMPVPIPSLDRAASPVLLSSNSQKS
# [3] = molecular target: T3, SPIC (UniProt Q8N5J4)
# T3 sequence: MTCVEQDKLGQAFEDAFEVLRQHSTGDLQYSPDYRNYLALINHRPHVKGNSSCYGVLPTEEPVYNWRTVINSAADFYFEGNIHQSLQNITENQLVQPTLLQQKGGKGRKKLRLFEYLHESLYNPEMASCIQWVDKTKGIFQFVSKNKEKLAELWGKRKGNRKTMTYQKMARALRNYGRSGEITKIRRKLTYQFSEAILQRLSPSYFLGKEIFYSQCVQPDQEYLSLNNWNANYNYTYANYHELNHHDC
# [4] = molecular target: T4, ETS2 (UniProt P15036)
# T4 sequence: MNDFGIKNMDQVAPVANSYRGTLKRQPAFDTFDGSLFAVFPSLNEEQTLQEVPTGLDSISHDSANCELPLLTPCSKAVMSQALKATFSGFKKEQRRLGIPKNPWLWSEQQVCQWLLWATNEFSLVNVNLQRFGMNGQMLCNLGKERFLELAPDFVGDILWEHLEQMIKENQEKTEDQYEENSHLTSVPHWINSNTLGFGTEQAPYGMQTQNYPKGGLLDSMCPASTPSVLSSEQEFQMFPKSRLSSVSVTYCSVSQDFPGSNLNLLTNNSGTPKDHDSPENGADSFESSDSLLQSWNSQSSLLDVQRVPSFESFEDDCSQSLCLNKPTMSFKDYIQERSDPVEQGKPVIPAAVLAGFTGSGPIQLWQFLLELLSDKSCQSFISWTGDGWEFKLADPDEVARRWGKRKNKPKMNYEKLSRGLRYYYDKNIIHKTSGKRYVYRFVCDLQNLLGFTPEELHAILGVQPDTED
# [5] = molecular target: T5, ETV3 (UniProt P41162-2)
# T5 sequence: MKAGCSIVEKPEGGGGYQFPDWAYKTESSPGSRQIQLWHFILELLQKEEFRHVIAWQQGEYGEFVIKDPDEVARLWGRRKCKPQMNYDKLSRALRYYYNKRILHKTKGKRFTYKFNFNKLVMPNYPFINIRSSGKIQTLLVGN
Sequence,binding signal [1],binding signal [2],binding signal [3],binding signal [4],binding signal [5]
CGCAGA,0.797,0.694,0.755,0.773,0.784
GCGCAG,0.813,0.858,0.844,0.782,0.854
GTGAAG,0.524,0.522,0.541,0.566,0.554
AAGAGG,0.842,0.911,0.932,0.89,0.878
ACCGGG,0.491,0.476,0.55,0.504,0.475
GTCGTA,0.654,0.55,0.648,0.603,0.615
GCGTGC,0.849,0.649,0.883,0.768,0.822
TGTAGT,0.969,0.958,0.915,0.964,0.945
GGGCGT,0.54,0.528,0.466,0.487,0.466
GGGCGA,0.867,0.825,0.821,0.784,0.742
GTGAGT,0.122,0.119,0.134,0.131,0.137
AGAGGG,0.708,0.682,0.685,0.746,0.707
GACAAT,0.892,0.825,0.852,0.918,0.917
GGTAGC,0.879,0.827,0.798,0.764,0.848
AGACTA,0.837,0.803,0.807,0.789,0.799
AAGTCG,0.531,0.525,0.558,0.49,0.463
ACTAGT,0.895,0.933,0.706,0.891,0.836
GGTAGG,0.661,0.606,0.67,0.631,0.665
CGAGGG,0.631,0.674,0.633,0.641,0.609
GTCAGT,0.602,0.586,0.595,0.647,0.652
AGTGAA,0.821,0.87,0.806,0.857,0.903

Sequence,binding signal [1],binding signal [2],binding signal [3],binding signal [4],binding signal [5]
CATGGA,0.841,0.853,0.929,0.9,0.872
GACCCG,0.835,0.827,0.712,0.862,0.908
AGGCAT,0.883,0.697,0.792,0.857,0.853
CGTCGG,0.457,0.516,0.425,0.443,0.418
TAGGGG,0.849,0.874,0.794,0.802,0.897
GGGGTG,0.635,0.718,0.568,0.689,0.697
AACCAG,0.844,0.773,0.847,0.894,0.864
GAAGAG,0.928,0.954,0.9,0.905,0.865
AGGTAG,0.706,0.577,0.679,0.663,0.651
ATCCAG,0.873,0.885,0.86,0.839,0.894
TCGCCA,0.994,0.998,0.957,0.996,0.91
AGTTAG,0.863,0.796,0.765,0.831,0.791
GTCAAT,0.802,0.712,0.734,0.814,0.86
GGTAAG,0.776,0.721,0.687,0.76,0.712
GCGGTC,0.564,0.67,0.596,0.64,0.643
ACCGAG,0.743,0.707,0.826,0.777,0.691
CAGGCG,0.293,0.301,0.29,0.255,0.251
GGGATG,0.914,0.932,0.905,0.95,0.866
GGCGAT,0.942,0.678,0.732,0.774,0.9
GTGAGC,0.432,0.366,0.404,0.384,0.394
CGTAGA,0.714,0.702,0.775,0.699,0.645

Sequence,binding signal [1],binding signal [2],binding signal [3],binding signal [4],binding signal [5]
CAGTGG,0.507,0.538,0.456,0.497,0.5
GGAGGT,0.335,0.315,0.288,0.359,0.364
TCGGGT,0.606,0.592,0.61,0.605,0.669
GTGTGG,0.599,0.538,0.693,0.659,0.62
GAGATG,0.722,0.617,0.771,0.648,0.72
GAGGCC,0.425,0.425,0.419,0.443,0.455
GTTGTG,0.925,0.857,0.954,0.83,0.88
TGTGTC,0.683,0.666,0.717,0.796,0.771
GTAACG,0.923,0.886,0.914,0.922,0.937
GGGGAC,0.456,0.443,0.424,0.456,0.445
GGAGTA,0.347,0.346,0.32,0.353,0.35
GGTGTA,0.902,0.837,0.942,0.9,0.831
CAAGTC,0.91,0.87,0.857,0.822,0.822
ATCAGG,0.981,0.849,0.864,0.98,0.945
GAGGGG,0.498,0.515,0.581,0.547,0.481
GGGGGG,0.558,0.658,0.544,0.589,0.567
AGAGGT,0.918,0.813,0.696,0.83,0.827
AGGGAG,0.405,0.335,0.377,0.369,0.337
AGAACG,0.452,0.523,0.457,0.474,0.431
ATCGGT,0.694,0.684,0.729,0.628,0.665
GAGAGC,0.353,0.374,0.379,0.318,0.378

# Part of the list above, tab-delimited:
Sequence	binding signal [1]	binding signal [2]	binding signal [3]	binding signal [4]	binding signal [5]
AACCAG	0.844	0.773	0.847	0.894	0.864
GAAGAG	0.928	0.954	0.9	0.905	0.865
AGGTAG	0.706	0.577	0.679	0.663	0.651
ATCCAG	0.873	0.885	0.86	0.839	0.894
TCGCCA	0.994	0.998	0.957	0.996	0.91
AGTTAG	0.863	0.796	0.765	0.831	0.791
GTCAAT	0.802	0.712	0.734	0.814	0.86
GGTAAG	0.776	0.721	0.687	0.76	0.712
GCGGTC	0.564	0.67	0.596	0.64	0.643
ACCGAG	0.743	0.707	0.826	0.777	0.691
CAGGCG	0.293	0.301	0.29	0.255	0.251
GGGATG	0.914	0.932	0.905	0.95	0.866
GGCGAT	0.942	0.678	0.732	0.774	0.9
GTGAGC	0.432	0.366	0.404	0.384	0.394
CGTAGA	0.714	0.702	0.775	0.699	0.645
CAGTGG	0.507	0.538	0.456	0.497	0.5
GGAGGT	0.335	0.315	0.288	0.359	0.364
TCGGGT	0.606	0.592	0.61	0.605	0.669
GTGTGG	0.599	0.538	0.693	0.659	0.62
